PubChem BioAssay AID1259254, NCATS | 2017
Aim: 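Genome-wide screen for genes that prevent DNA re-replication in cancer cells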 (primary screen). Cells: human HCT116 colorectal cancer cells. Reagent: single siRNA against human genes. Timing: 3 days. Measurement: 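Imaged Hoechst DNA stain sorts each cell into a cycle phase by DNA amount; per plate, G2 fraction set to 0% for non-targeting and 100% for GMNN siRNA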. Direction: G2 robust z-score and G2 cells, % of GMNN control: higher = more G2 cells, more excess DNA replication. Rule for the call: 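An siRNA counts as active if its G2 robust z-score lies at least 5 MADs above the screen median; here such calls match roughly 38% of GMNN control or more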.
Here is an unselected part of about 59,000 reagents. Over the whole deposit, about 1,550 (2.6%) are marked active. 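G2 share is only a proxy for re-replication; each gene was hit by three separate siRNAs, and active genes were retested.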 Reagents against one gene are numbered here. Not all columns of the deposit are shown. The record does not give: the amount of reagent.

The opening 9 records as a preview:
| G2 robust z-score | G2 cells, % of GMNN control | activity call | target gene | reagent no. |
| --- | --- | --- | --- | --- |
| 1.2 | 11.4 | inactive | PLCZ1 (phospholipase C zeta 1) | 1 |
| 0.402 | 5.8 | inactive | PLCZ1 (phospholipase C zeta 1) | 2 |
| -0.161 | 1.84 | inactive | PLCZ1 (phospholipase C zeta 1) | 3 |
| -0.452 | -0.214 | inactive | L1CAM-AS1 (L1CAM antisense RNA 1) | 1 |
| 1.15 | 11.1 | inactive | L1CAM-AS1 (L1CAM antisense RNA 1) | 2 |
| 0.387 | 5.69 | inactive | L1CAM-AS1 (L1CAM antisense RNA 1) | 3 |
| 1.31 | 12.2 | inactive | AANAT (aralkylamine N-acetyltransferase) | 1 |
| -0.931 | -3.58 | inactive | AANAT (aralkylamine N-acetyltransferase) | 2 |
| -0.694 | -1.92 | inactive | AANAT (aralkylamine N-acetyltransferase) | 3 |

Results, repeating the preview:
| G2 robust z-score | G2 cells, % of GMNN control | activity call | target gene | reagent no. |
| --- | --- | --- | --- | --- |
| 1.2 | 11.4 | inactive | PLCZ1 (phospholipase C zeta 1) | 1 |
| 0.402 | 5.8 | inactive | PLCZ1 (phospholipase C zeta 1) | 2 |
| -0.161 | 1.84 | inactive | PLCZ1 (phospholipase C zeta 1) | 3 |
| -0.452 | -0.214 | inactive | L1CAM-AS1 (L1CAM antisense RNA 1) | 1 |
| 1.15 | 11.1 | inactive | L1CAM-AS1 (L1CAM antisense RNA 1) | 2 |
| 0.387 | 5.69 | inactive | L1CAM-AS1 (L1CAM antisense RNA 1) | 3 |
| 1.31 | 12.2 | inactive | AANAT (aralkylamine N-acetyltransferase) | 1 |
| -0.931 | -3.58 | inactive | AANAT (aralkylamine N-acetyltransferase) | 2 |
| -0.694 | -1.92 | inactive | AANAT (aralkylamine N-acetyltransferase) | 3 |
| 1.34 | 12.4 | inactive | LOC729324 (retired record) | 1 |
| 0.593 | 7.14 | inactive | LOC729324 (retired record) | 2 |
| 0.135 | 3.91 | inactive | LOC729324 (retired record) | 3 |
| -1.14 | -5.07 | inactive | FAM222A (family with sequence similarity 222 member A) | 1 |
| -0.518 | -0.677 | inactive | FAM222A (family with sequence similarity 222 member A) | 2 |
| -0.107 | 2.22 | inactive | FAM222A (family with sequence similarity 222 member A) | 3 |
| 4.08 | 31.7 | inactive | AOC3 (amine oxidase copper containing 3) | 1 |
| 0.858 | 9.01 | inactive | AOC3 (amine oxidase copper containing 3) | 2 |
| -1.31 | -6.23 | inactive | AOC3 (amine oxidase copper containing 3) | 3 |
| 0.145 | 3.99 | inactive | POU2AF2 (POU class 2 homeobox associating factor 2) | 1 |
| -0.21 | 1.49 | inactive | POU2AF2 (POU class 2 homeobox associating factor 2) | 2 |
| -0.0879 | 2.35 | inactive | POU2AF2 (POU class 2 homeobox associating factor 2) | 3 |
| 0.524 | 6.66 | inactive | HERPUD1 | 1 |
| -0.552 | -0.915 | inactive | HERPUD1 | 2 |
| -0.495 | -0.518 | inactive | HERPUD1 | 3 |
| -1.36 | -6.6 | inactive | DAAM2 (dishevelled associated activator of morphogenesis 2) | 1 |
| -0.359 | 0.44 | inactive | DAAM2 (dishevelled associated activator of morphogenesis 2) | 2 |
| 0.274 | 4.9 | inactive | DAAM2 (dishevelled associated activator of morphogenesis 2) | 3 |
| -0.822 | -2.81 | inactive | LOC728416 | 1 |
| -0.814 | -2.76 | inactive | LOC728416 | 2 |
| -0.169 | 1.78 | inactive | LOC728416 | 3 |
| -0.698 | -1.94 | inactive | RFTN2 (raftlin family member 2) | 1 |
| 1.6 | 14.2 | inactive | RFTN2 (raftlin family member 2) | 2 |
| 0.139 | 3.95 | inactive | RFTN2 (raftlin family member 2) | 3 |
| -1.26 | -5.91 | inactive | CDHR2 (cadherin related family member 2) | 1 |
| 6.9 | 51.5 | active | CDHR2 (cadherin related family member 2) | 2 |
| 0.629 | 7.39 | inactive | CDHR2 (cadherin related family member 2) | 3 |
| 6.09 | 45.8 | active | ADD2 (adducin 2) | 1 |
| 0.294 | 5.04 | inactive | ADD2 (adducin 2) | 2 |
| -0.347 | 0.529 | inactive | ADD2 (adducin 2) | 3 |
| 1.08 | 10.6 | inactive | REXO1 (RNA exonuclease 1 homolog) | 1 |
| -1.16 | -5.19 | inactive | REXO1 (RNA exonuclease 1 homolog) | 2 |
| -0.0567 | 2.57 | inactive | REXO1 (RNA exonuclease 1 homolog) | 3 |
| -0.562 | -0.986 | inactive | MUC22 (mucin 22) | 1 |
| -0.391 | 0.215 | inactive | MUC22 (mucin 22) | 2 |
| -0.255 | 1.17 | inactive | MUC22 (mucin 22) | 3 |
| 1.12 | 10.8 | inactive | KLHL8 (kelch like family member 8) | 1 |
| 0.0902 | 3.6 | inactive | KLHL8 (kelch like family member 8) | 2 |
| -0.803 | -2.69 | inactive | KLHL8 (kelch like family member 8) | 3 |
| 0.182 | 4.25 | inactive | FLRT1 (fibronectin leucine rich transmembrane protein 1) | 1 |
| -0.273 | 1.05 | inactive | FLRT1 (fibronectin leucine rich transmembrane protein 1) | 2 |
| 0.533 | 6.72 | inactive | FLRT1 (fibronectin leucine rich transmembrane protein 1) | 3 |
| -1.77 | -9.46 | inactive | GPR83 (G protein-coupled receptor 83) | 1 |
| 1.15 | 11 | inactive | GPR83 (G protein-coupled receptor 83) | 2 |
| 5.9 | 44.5 | active | GPR83 (G protein-coupled receptor 83) | 3 |
| -0.397 | 0.171 | inactive | PRR34 (PRR34 long non-coding RNA) | 1 |
| 1.71 | 15 | inactive | PRR34 (PRR34 long non-coding RNA) | 2 |
| 1.53 | 13.7 | inactive | PRR34 (PRR34 long non-coding RNA) | 3 |
| 0.245 | 4.69 | inactive | MEA1 (male-enhanced antigen 1) | 1 |
| 0.86 | 9.02 | inactive | MEA1 (male-enhanced antigen 1) | 2 |
| 0.884 | 9.19 | inactive | MEA1 (male-enhanced antigen 1) | 3 |
| 0.099 | 3.66 | inactive | RBM44 (RNA binding motif protein 44) | 1 |
| 10.1 | 74 | active | RBM44 (RNA binding motif protein 44) | 2 |
| -0.796 | -2.63 | inactive | RBM44 (RNA binding motif protein 44) | 3 |
| 0.258 | 4.78 | inactive | ZNF628 (zinc finger protein 628) | 1 |
| 0.336 | 5.33 | inactive | ZNF628 (zinc finger protein 628) | 2 |
| 1.06 | 10.4 | inactive | ZNF628 (zinc finger protein 628) | 3 |
| 0.484 | 6.37 | inactive | METTL2A (methyltransferase 2A, tRNA N3-cytidine) | 1 |
| 1.21 | 11.5 | inactive | METTL2A (methyltransferase 2A, tRNA N3-cytidine) | 2 |
| 0.783 | 8.47 | inactive | METTL2A (methyltransferase 2A, tRNA N3-cytidine) | 3 |
| 1.6 | 14.2 | inactive | GON4L (gon-4 like) | 1 |
| 0.236 | 4.63 | inactive | GON4L (gon-4 like) | 2 |
| -0.0691 | 2.48 | inactive | GON4L (gon-4 like) | 3 |
| -0.48 | -0.407 | inactive | DMBT1 (deleted in malignant brain tumors 1) | 1 |
| 0.673 | 7.7 | inactive | DMBT1 (deleted in malignant brain tumors 1) | 2 |
| -0.622 | -1.41 | inactive | DMBT1 (deleted in malignant brain tumors 1) | 3 |
| 1.03 | 10.2 | inactive | ETS1 (ETS proto-oncogene 1, transcription factor) | 1 |
| -1.12 | -4.92 | inactive | ETS1 (ETS proto-oncogene 1, transcription factor) | 2 |
| 0.588 | 7.11 | inactive | ETS1 (ETS proto-oncogene 1, transcription factor) | 3 |
| 0.416 | 5.9 | inactive | HMGB1P1 (high mobility group box 1 pseudogene 1) | 1 |
| -1.05 | -4.43 | inactive | HMGB1P1 (high mobility group box 1 pseudogene 1) | 2 |
| 0.806 | 8.64 | inactive | HMGB1P1 (high mobility group box 1 pseudogene 1) | 3 |
| -0.215 | 1.45 | inactive | CD69 (CD69 molecule) | 1 |
| 0.517 | 6.61 | inactive | CD69 (CD69 molecule) | 2 |
| -0.729 | -2.16 | inactive | CD69 (CD69 molecule) | 3 |
| 0.0584 | 3.38 | inactive | PDZD7 (PDZ domain containing 7) | 1 |
| -0.135 | 2.02 | inactive | PDZD7 (PDZ domain containing 7) | 2 |
| 1.26 | 11.8 | inactive | PDZD7 (PDZ domain containing 7) | 3 |
